Some of the results follow.
Assays:
Experiment in all cases: log2 fold change, soluble protein after heating vs DMSO (PISA); higher = thermal stabilisation; K562 cells, 10 uM, 30 min; active = over 0.2 and 3.5 SD of the protein, either way, in both replicates (recomputed)
[1] = compound: C[C@@H]1COCCN1C2=NC(=NC(=C2)C3(CC3)S(=O)(=O)C)C4=C5C=CNC5=CC=C4
Procedure, shortened: (§1)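 Soluble protein was defined as the supernatant after 21,000xg for 90 min. It came from K562 cells at 2×10^6 cells/mL given 10 μM compound for 30 min, heated in aliquots for 3 min across 48°C-58°C, pooled, and extracted in PBS with 0.5% NP-40 at 4°C, and was quantified by TMTpro 16plex LC-MS/MS with equalised channel sums. Thermal stability against control samples, from duplicates, is reported as log2 fold change.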

By UniProt entry, the sequences of proteins in these tests, tags left out. Where a name states a change or a piece, a line headed by the entry shows the natural chain unless it says otherwise.
UniProt O14810: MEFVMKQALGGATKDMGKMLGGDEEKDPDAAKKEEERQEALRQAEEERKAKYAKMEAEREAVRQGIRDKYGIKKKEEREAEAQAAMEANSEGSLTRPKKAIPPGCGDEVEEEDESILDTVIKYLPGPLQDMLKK
UniProt Q9HCH3: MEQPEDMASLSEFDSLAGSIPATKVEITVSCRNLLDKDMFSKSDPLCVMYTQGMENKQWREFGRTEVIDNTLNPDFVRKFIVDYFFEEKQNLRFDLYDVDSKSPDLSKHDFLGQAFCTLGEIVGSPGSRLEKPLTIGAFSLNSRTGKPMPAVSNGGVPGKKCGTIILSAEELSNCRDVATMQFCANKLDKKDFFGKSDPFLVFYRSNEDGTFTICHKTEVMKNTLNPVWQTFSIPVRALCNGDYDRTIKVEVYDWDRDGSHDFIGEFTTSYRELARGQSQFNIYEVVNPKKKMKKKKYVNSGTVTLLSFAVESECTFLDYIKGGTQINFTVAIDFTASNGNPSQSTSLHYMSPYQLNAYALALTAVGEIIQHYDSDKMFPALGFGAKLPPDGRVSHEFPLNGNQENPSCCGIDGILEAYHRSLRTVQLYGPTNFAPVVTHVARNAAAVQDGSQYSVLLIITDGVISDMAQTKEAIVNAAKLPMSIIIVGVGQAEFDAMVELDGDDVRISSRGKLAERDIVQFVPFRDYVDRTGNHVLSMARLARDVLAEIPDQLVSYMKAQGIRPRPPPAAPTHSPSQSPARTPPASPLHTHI
UniProt Q7Z4G1, whole entry, looked up: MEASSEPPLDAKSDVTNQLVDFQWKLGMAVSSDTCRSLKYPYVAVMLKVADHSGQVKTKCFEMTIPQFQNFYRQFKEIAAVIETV
UniProt Q8N6G5: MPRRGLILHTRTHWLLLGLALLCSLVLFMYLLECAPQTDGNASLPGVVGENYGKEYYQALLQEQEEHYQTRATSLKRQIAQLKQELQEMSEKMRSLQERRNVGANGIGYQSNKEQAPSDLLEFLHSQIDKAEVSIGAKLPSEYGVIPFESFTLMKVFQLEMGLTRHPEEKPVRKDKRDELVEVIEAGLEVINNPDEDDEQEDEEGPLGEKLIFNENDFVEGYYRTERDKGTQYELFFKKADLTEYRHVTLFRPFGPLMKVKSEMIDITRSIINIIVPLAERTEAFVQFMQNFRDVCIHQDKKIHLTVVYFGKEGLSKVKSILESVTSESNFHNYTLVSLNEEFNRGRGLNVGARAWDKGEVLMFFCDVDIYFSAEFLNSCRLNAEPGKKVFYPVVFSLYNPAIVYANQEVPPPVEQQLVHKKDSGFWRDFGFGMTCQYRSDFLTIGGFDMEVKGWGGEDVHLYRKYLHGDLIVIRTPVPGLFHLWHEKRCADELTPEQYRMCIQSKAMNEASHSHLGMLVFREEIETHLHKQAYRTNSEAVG
UniProt Q92828: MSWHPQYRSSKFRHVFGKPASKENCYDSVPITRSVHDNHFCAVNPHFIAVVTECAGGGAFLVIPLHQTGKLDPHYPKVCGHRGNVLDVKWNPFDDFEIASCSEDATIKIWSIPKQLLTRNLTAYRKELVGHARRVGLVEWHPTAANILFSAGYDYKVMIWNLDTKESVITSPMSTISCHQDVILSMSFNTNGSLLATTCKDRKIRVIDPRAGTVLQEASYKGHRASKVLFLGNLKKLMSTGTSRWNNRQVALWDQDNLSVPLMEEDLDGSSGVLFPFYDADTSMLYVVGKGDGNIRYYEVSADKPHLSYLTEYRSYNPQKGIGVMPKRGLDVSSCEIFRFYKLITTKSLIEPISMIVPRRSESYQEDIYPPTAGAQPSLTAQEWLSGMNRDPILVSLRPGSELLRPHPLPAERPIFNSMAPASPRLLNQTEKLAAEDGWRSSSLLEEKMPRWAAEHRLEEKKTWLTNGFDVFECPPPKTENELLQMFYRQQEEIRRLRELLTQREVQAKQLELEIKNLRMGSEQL
UniProt Q9UBL6: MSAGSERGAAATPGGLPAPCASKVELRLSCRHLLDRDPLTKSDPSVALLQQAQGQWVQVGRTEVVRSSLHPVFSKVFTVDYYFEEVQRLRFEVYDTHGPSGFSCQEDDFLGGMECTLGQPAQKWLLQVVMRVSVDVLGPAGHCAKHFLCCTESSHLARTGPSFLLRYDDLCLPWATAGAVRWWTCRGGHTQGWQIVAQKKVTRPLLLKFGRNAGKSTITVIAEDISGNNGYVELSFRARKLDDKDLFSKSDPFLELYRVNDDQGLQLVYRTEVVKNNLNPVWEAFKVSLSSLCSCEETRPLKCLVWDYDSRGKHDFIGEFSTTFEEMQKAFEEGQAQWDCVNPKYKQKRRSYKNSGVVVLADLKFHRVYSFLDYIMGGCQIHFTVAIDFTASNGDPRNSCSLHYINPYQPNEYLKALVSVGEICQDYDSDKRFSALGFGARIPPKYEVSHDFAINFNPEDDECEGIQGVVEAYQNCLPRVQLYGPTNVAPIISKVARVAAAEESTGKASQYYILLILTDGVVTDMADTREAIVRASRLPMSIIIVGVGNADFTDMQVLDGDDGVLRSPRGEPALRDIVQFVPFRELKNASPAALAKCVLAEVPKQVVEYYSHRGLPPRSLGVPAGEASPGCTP
UniProt P02461, whole entry, looked up: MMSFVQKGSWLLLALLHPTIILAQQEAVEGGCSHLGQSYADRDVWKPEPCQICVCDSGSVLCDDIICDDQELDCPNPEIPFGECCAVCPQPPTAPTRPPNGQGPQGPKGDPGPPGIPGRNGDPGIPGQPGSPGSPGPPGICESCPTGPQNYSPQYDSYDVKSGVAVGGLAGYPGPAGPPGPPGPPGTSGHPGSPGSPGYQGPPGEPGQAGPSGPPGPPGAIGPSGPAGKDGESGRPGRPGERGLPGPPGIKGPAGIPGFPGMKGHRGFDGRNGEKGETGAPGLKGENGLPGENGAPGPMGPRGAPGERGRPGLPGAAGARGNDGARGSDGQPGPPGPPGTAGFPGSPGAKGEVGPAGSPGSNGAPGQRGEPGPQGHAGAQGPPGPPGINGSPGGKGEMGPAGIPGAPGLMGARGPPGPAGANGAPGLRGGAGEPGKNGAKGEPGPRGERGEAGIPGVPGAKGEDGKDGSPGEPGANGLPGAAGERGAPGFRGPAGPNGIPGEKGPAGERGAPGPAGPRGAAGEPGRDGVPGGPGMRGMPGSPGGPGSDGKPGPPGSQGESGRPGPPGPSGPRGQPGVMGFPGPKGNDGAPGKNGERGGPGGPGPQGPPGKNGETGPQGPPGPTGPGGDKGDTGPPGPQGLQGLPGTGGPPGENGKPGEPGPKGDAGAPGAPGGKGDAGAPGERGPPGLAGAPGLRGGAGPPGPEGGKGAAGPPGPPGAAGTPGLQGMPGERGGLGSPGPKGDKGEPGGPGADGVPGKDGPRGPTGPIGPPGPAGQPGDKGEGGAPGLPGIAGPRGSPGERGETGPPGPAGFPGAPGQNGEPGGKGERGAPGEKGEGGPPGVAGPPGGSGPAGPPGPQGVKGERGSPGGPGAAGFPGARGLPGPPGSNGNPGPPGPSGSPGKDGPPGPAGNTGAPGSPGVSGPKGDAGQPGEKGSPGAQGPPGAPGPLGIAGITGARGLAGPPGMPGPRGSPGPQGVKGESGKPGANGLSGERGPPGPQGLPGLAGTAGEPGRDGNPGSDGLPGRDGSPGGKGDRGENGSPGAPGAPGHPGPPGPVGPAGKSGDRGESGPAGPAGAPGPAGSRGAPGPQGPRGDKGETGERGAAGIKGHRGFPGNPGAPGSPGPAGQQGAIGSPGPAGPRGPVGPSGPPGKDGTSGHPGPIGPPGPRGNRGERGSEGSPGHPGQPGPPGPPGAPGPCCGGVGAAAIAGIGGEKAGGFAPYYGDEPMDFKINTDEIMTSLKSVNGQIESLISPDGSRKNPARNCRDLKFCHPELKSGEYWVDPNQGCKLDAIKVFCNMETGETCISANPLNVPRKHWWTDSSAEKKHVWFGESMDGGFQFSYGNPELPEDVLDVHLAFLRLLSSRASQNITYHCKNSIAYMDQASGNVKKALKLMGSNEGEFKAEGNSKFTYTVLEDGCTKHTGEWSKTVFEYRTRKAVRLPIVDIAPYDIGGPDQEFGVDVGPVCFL
UniProt Q03060: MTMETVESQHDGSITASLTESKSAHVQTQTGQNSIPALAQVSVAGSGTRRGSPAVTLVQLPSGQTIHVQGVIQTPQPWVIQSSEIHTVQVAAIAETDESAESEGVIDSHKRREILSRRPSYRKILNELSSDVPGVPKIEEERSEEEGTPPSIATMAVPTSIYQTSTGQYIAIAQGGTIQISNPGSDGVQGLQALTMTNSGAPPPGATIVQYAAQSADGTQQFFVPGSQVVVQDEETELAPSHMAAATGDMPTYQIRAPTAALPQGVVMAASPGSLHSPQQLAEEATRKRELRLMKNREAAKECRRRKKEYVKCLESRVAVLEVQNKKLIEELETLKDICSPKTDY
UniProt P53674: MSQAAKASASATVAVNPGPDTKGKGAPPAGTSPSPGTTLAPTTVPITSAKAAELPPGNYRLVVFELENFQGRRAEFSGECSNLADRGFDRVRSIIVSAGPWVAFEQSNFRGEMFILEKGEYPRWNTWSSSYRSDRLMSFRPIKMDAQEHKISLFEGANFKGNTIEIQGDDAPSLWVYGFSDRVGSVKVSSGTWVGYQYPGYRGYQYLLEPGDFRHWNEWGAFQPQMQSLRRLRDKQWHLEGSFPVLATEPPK
UniProt P54108: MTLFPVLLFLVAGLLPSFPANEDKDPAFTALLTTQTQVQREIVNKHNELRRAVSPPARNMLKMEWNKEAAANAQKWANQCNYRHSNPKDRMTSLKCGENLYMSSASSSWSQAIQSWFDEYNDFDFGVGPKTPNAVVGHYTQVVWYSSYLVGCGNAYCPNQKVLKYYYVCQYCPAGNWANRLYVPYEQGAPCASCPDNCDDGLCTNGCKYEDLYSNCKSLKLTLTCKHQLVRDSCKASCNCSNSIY
UniProt Q14194, whole entry, looked up: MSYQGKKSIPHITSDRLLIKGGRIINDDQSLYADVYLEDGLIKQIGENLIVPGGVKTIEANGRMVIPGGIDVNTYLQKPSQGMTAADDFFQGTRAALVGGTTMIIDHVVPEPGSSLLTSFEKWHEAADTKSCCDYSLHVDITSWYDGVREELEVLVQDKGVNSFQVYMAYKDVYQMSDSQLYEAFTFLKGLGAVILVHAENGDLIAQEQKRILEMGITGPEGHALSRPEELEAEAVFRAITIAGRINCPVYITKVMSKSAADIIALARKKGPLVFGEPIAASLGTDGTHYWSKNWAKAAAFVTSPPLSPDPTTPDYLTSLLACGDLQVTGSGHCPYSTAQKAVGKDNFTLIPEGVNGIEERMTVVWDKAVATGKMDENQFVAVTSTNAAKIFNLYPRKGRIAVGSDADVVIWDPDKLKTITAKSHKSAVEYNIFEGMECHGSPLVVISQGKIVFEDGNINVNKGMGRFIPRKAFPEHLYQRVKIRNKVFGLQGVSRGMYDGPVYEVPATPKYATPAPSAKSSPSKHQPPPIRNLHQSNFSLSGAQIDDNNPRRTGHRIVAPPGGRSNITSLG
UniProt P29762, whole entry, looked up: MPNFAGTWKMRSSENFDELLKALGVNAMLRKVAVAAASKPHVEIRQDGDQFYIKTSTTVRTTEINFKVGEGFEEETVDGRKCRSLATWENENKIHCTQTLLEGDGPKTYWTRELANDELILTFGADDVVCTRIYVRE
UniProt Q6UUV7: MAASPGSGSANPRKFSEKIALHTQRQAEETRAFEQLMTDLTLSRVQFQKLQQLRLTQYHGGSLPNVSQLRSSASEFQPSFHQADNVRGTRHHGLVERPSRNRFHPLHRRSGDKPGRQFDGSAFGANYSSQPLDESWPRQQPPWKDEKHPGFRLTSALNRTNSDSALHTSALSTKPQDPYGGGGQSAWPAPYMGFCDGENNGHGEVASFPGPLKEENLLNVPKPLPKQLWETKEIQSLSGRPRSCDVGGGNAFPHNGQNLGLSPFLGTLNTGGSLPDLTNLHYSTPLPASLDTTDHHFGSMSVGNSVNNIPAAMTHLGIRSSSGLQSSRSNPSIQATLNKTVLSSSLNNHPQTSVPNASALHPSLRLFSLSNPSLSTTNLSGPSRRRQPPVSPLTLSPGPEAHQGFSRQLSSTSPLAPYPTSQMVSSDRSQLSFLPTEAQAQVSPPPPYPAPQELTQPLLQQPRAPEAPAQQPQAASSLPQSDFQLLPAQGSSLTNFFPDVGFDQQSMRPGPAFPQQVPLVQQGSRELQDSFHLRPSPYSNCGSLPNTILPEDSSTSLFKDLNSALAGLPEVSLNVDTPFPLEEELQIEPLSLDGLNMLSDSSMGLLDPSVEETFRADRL
UniProt Q12887: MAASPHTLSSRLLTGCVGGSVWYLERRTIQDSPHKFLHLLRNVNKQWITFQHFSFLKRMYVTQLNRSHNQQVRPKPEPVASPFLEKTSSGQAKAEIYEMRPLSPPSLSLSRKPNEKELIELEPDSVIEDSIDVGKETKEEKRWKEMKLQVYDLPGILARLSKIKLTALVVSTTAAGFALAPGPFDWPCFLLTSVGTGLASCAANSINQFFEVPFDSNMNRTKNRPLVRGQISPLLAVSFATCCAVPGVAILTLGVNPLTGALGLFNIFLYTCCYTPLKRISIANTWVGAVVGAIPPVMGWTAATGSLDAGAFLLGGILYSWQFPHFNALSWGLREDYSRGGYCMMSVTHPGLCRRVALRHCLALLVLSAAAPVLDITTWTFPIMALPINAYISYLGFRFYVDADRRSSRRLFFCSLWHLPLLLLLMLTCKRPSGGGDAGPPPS

[2] = compound: Cc1cc(Nc2cc(CN3CCOCC3)c3nc(C)c(Cc4ccc(Cl)cc4F)n3n2)n[nH]1 [gandotinib]
Procedure, shortened: as §1

[3] = compound: Cc1ccc(C(=O)N(CCCN)[C@@H](c2nc3cc(Cl)ccc3c(=O)n2Cc2ccccc2)C(C)C)cc1 [ispinesib]
Procedure, shortened: as §1

[4] = compound: Cc1cccc(CC(=O)N2CCc3c2ccc(-c2cn(C)c4ncnc(N)c24)c3F)n1
Procedure, shortened: as §1

[5] = compound: Cc1cn(-c2cc(NC(=O)c3ccc(C)c(Nc4nccc(-c5cccnc5)n4)c3)cc(C(F)(F)F)c2)cn1 [nilotinib]
Procedure, shortened: as §1

[6] = compound: Cc1nc(Nc2n[nH]c3c2CN(C(=O)N[C@H](CN(C)C)c2ccccc2)C3(C)C)c2sccc2n1
Procedure, shortened: as §1

[7] = compound: Cc1ncc(-c2ccnc(Nc3ccc(S(C)(=O)=O)cc3)n2)n1C(C)C
Procedure, shortened: as §1

[8] = compound: Cn1cc(-c2ccc3nnc(C(F)(F)c4ccc5ncccc5c4)n3n2)cn1
Procedure, shortened: as §1

[9] = compound: Cn1cncc1[C@@](N)(c1ccc(Cl)cc1)c1ccc2c(c1)c(-c1cccc(Cl)c1)cc(=O)n2C [tipifarnib]
Procedure, shortened: as §1

[10] = compound: C[C@@H](Oc1cc(-c2cnn(C3CCNCC3)c2)cnc1N)c1c(Cl)ccc(F)c1Cl [crizotinib]
Procedure, shortened: as §1

[11] = compound: C[C@H](Nc1ncnc2nc[nH]c12)c1cc2cccc(Cl)c2c(=O)n1-c1ccccc1 [duvelisib]
Procedure, shortened: as §1

[12] = compound: Cc1cc(SCc2sc(-c3ccc(C(F)(F)F)cc3)nc2C)ccc1OCC(=O)O
Procedure, shortened: as §1

[13] = compound: Cc1ccc(-n2nc(C(C)(C)C)cc2NC(=O)Nc2ccc(OCCN3CCOCC3)c3ccccc23)cc1 [doramapimod]
Procedure, shortened: as §1

[14] = compound: Cc1ccc(NC(=O)c2ccc(CN3CC[C@H](N(C)C)C3)c(C(F)(F)F)c2)cc1Nc1nccc(-c2cncnc2)n1 [bafetinib]
Procedure, shortened: as §1

[15] = compound: Cc1nc(Nc2ncc(C(=O)Nc3c(C)cccc3Cl)s2)cc(N2CCN(CCO)CC2)n1 [dasatinib]
Procedure, shortened: as §1

[16] = compound: FC(F)(F)c1ccc(/C=C/c2nc(COc3ccc(CCCCn4ccnn4)cc3)co2)cc1 [mubritinib]
Procedure, shortened: as §1

[17] = compound: C[C@H](C1=CC=C(C=C1)C(=O)NC2=C3C=CNC3=NC=C2)N
Procedure, shortened: as §1

[18] = compound: Cn1cc(-c2ccc3c(c2)CCN3C(=O)Cc2cccc(C(F)(F)F)c2)c2c(N)ncnc21
Procedure, shortened: as §1

[19] = compound: CS(=O)(=O)c1ccc(-c2cnc(N)c(C(=O)Nc3ccccc3)n2)cc1
Procedure, shortened: as §1

[20] = compound: Cc1cc(Nc2cc(N3CCN(C)CC3)nc(Sc3ccc(NC(=O)C4CC4)cc3)n2)n[nH]1 [tozasertib]
Procedure, shortened: as §1

Measured: log2 fold change

CRY1 (UniProt Q16526)
inactive: [1] 0.076 | [2] -0.223 | [3] -0.032 | [4] -0.007 | [5] 0.104 | [6] -0.015 | [7] 0.052 | [8] -0.07 | [9] -0.009

CPLX1 (UniProt O14810)
inactive: [10] 0.069 | [1] -0.016 | [11] 0.169 | [2] -0.073 | [12] 0.004 | [13] -0.018 | [3] 0.108 | [14] -0.063 | [4] -0.059 | [15] 0.123 | [8] 0.11 | [16] 0.207

CPNE5 (UniProt Q9HCH3)
inactive: [17] 0.148 | [18] -0.077

COMMD6 isoform 2 (UniProt Q7Z4G1)
inactive: [1] 0.007 | [2] -0.065 | [4] 0.01

CSGALNACT2 (UniProt Q8N6G5)
inactive: [10] 0.118 | [1] 0.146 | [17] 0.176 | [13] -0.027 | [14] 0.017 | [5] -0.05 | [6] 0.105 | [7] -0.008 | [18] -0.053

CORO2A (UniProt Q92828)
inactive: [19] -0.085 | [17] 0.101 | [2] 0.061 | [12] 0.023 | [3] -0.046 | [14] 0.021 | [4] 0.015 | [5] -0.047 | [6] -0.052 | [15] -0.066 | [7] -0.049 | [18] -0.017 | [8] -0.255 | [9] -0.005 | [16] 0.048

CPA4 (UniProt Q9UI42)
inactive: [20] -0.077

CRABP2 (UniProt P29373)
inactive: [1] -0.266 | [11] 0.178 | [2] 0.293 | [12] 0.11 | [4] -0.132 | [15] -0.102 | [16] 0.086

COQ4 (UniProt Q9Y3A0)
inactive: [3] -0.097 | [8] -0.059

CPNE7 (UniProt Q9UBL6)
inactive: [10] 0.09 | [17] -0.015 | [11] 0.069 | [20] -0.03 | [12] 0.127 | [13] 0.017 | [3] 0.089 | [14] 0.028 | [5] 0.057 | [6] -0.077 | [15] -0.067 | [7] -0.073 | [18] 0.092 | [8] 0.079 | [9] -0.073 | [16] 0.097

CRYM (UniProt Q14894)
inactive: [1] 0.033 | [17] -0.133 | [11] 0.034 | [2] -0.088 | [20] -0.142 | [12] -0.104 | [4] 0.067 | [15] -0.393 | [18] 0.236

COP1 (UniProt Q8NHY2)
inactive: [17] 0.129 | [3] -0.022 | [18] -0.153 | [8] 0.102 | [9] -0.036

CP (UniProt P00450)
inactive: [3] -0.027 | [14] 0.19 | [8] -0.081 | [9] 0.12

COL25A1 (UniProt Q9BXS0)
inactive: [1] 0.13 | [14] 0.285

CRAT (UniProt P43155)
inactive: [17] 0.542 | [18] 0.089 | [9] -0.266

COQ2 (UniProt Q96H96)
inactive: [1] -0.319

CSNK1A1 isoform 3 (UniProt P48729)
inactive: [14] 0.224 | [9] 0.165 | [16] 0.055

COMMD3-BMI1 (UniProt R4GMX3)
inactive: [19] 0.074 | [1] -0.031 | [17] 0.019 | [2] -0.011 | [4] -0.032 | [5] -0.109 | [6] -0.02 | [7] 0.046 | [18] 0.141 | [9] 0.435

CPSF4 (UniProt O95639)
inactive: [2] -0.059 | [3] -0.05 | [14] -0.24 | [4] -0.076 | [5] -0.056 | [6] -0.292 | [7] -0.202 | [8] -0.151 | [16] -0.261

COL3A1 (UniProt P02461)
inactive: [10] -0.079 | [1] -0.194 | [17] 0.347 | [11] -0.227 | [2] -0.011 | [20] 0.073 | [12] -0.18 | [13] 0.243 | [3] -0.141 | [4] -0.085 | [15] 0.174 | [18] 0.204 | [8] -0.045 | [9] -0.087

CRY2 (UniProt Q49AN0)
inactive: [11] 0.275 | [20] -0.08 | [12] -0.282 | [14] -0.066 | [5] -0.101 | [6] -0.071 | [15] -0.076 | [7] -0.049

CREB3L2 (UniProt Q70SY1)
inactive: [10] 0.098 | [1] -0.076 | [17] -0.26 | [13] 0.128 | [3] -0.342 | [14] 0.01 | [5] 0.091 | [6] -0.009 | [7] -0.119 | [18] 0.039 | [8] -0.024 | [16] 0.13

CPN1 (UniProt P15169)
inactive: [11] -0.133 | [20] 0.135 | [12] 0.09 | [3] -0.142 | [14] -0.081 | [15] -0.138 | [8] 0.102

COLEC11 isoform 10 (UniProt Q9BWP8)
inactive: [10] -0.09 | [1] -0.019 | [17] -0.031 | [11] 0.139 | [12] -0.028 | [13] -0.153 | [14] 0.038 | [5] 0.065 | [6] 0.028 | [15] 0.067 | [7] -0.006 | [18] -0.016 | [16] 0.016

CREM isoform 1 (UniProt Q03060)
inactive: [19] -0.028 | [1] 0.113 | [17] 0.042 | [11] -0.066 | [2] -0.056 | [20] -0.014 | [12] -0.009 | [3] -0.004 | [14] -0.061 | [4] 0.326 | [5] 0.048 | [6] 0.078 | [15] 0.007 | [7] 0.074 | [18] -0.136 | [8] -0.02 | [9] 0.075 | [16] 0.032

CROCCP2 (UniProt Q86T23)
inactive: [3] 0.013 | [14] -0.03 | [8] 0.103

CRYBB1 (UniProt P53674)
inactive: [10] -0.597 | [1] 0.861 | [11] 0.019 | [12] -0.095 | [13] -0.075 | [15] -0.011

CRNN (UniProt Q9UBG3)
inactive: [14] 0.417 | [16] 0.335

CRISP3 isoform 3 (UniProt P54108)
inactive: [14] 0.761

CRMP1 isoform 2 (UniProt Q14194)
inactive: [19] 0.024 | [17] 0.08 | [2] -0.132 | [12] -0.003 | [14] -0.024 | [4] -0.035 | [5] -0.012 | [6] 0.221 | [15] -0.074 | [7] -0.138 | [18] 0.182

Reprinted from the entries so far (2 entries):
CRISP3 isoform 3 (UniProt P54108)
inactive: [14] 0.761

CRMP1 isoform 2 (UniProt Q14194)
inactive: [19] 0.024 | [17] 0.08 | [2] -0.132 | [12] -0.003 | [14] -0.024 | [4] -0.035 | [5] -0.012 | [6] 0.221 | [15] -0.074 | [7] -0.138 | [18] 0.182

(next part)

CRABP1 (UniProt P29762)
inactive: [2] -0.191 | [4] 0.063

CRTC3 (UniProt Q6UUV7)
inactive: [19] -0.004 | [1] 0.177 | [17] 0.071 | [3] 0.129 | [14] -0.018 | [18] -0.002 | [8] -0.019 | [9] -0.302 | [16] -0.168

COL6A3 (UniProt P12111)
inactive: [1] -0.001 | [2] -0.068 | [4] -0.15 | [9] 0.078

COL2A1 (UniProt P02458)
inactive: [17] 0.41 | [11] -0.312 | [20] -0.283 | [12] -0.491 | [15] 0.26 | [18] 0.49

COX10 (UniProt Q12887)
inactive: [10] -0.187 | [1] -0.325 | [17] -0.014 | [11] 0.004 | [2] 0.302 | [20] -0.031 | [12] -0.026 | [13] -0.089 | [3] -0.242 | [14] -0.023 | [4] -0.046 | [5] 0.134 | [6] -0.117 | [15] -0.001 | [7] 0.18 | [18] -0.098 | [8] -0.205 | [9] 0 | [16] 0.053
